# Library screen at single concentrations

Results are given as percent effect.
The controls that fix the scale are not given in the record; negative values are as filed.
Compounds were drawn at random from those tested, without regard to their results.
Two or more numbers in one place are separate tests of the same structure; such repeats can differ widely.

Mtb glucose medium: 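Growth of Mycobacterium tuberculosis over 3 days (7H9 medium with glucose and tyloxapol); the read-out is not stated. Tested at 50 µM. Direction is inferred from retests: higher values go with more growth inhibition. Of about 69,000 compounds tested this way, about 760 (1.1%) reached 50% or more in at least one test.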
Mtb cholesterol medium: 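Growth of Mycobacterium tuberculosis over 4 days (cholesterol / DPPC medium with tyloxapol); the read-out is not stated. Concentration: 50 µM. Higher reads as more growth inhibition (inferred: compounds with an IC50 in retests scored well above the rest). About 69,000 compounds were tested under these conditions; 0.54% (about 370) showed 50% or more at least once.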

SMILES	Mtb glucose medium	Mtb cholesterol medium
O=C(O)C(F)(F)F.[H][C@]12CCN(S(C)(=O)=O)CC[C@@]1([H])S(=O)(=O)CCN2Cc1cccc(C)n1	-13.57% and -39.56%	-25.28%
Cc1nc(CCNC(=O)C2CC(=O)N(C(C)C)C2)cs1 (centres unmarked)	-8.955%	7.585%
Cc1cc(C)n(CCCNC(=O)NCc2c(C)cc(C)[nH]c2=O)n1	6.575%	-3.103%
O=C(c1cncnc1)N1CCCC(c2nccs2)C1 (centres unmarked)	7.576%	-1.309% and 3.058%
c1cnc(-c2nc(CN3CCCC(N4CCCC4)C3)cs2)nc1 (centres unmarked)	-10.71%	-12.14%
O=C(O)C(F)(F)F.[H][C@@]12CCN(C(=O)Cc3cccs3)C[C@]1([H])[C@@H](CN(C)C)OC2	6.168%	-12.39%
O=C(C1CCCC1)N1CC2(CCN(C3COC3)CC2)Cc2ccccc21	6.112%	6.337%
Cc1ccc(CC(=O)N2CCN(c3nccs3)CC2)s1	-35.25%	18.93%
N#Cc1ccsc1N1CCC(Sc2ncc[nH]2)C1=O (centres unmarked)	-1.474%	-15.34%
C[C@@H]1CN(C(=O)c2ccccc2F)C[C@]12CCN(CCN(C)C)C2=O	-2.679%	-8.437% and -12.1%
CCN1CCc2cc(C(=O)N(C)C)c(NCC3CC3)nc2CC1	18.77%	11.94%
C1CCN(CCOC2CCNCC2)C1	-0.9302% and -3.586%	-11.23%
Cc1cc(SCC(N)=O)nc(-c2cccc(F)c2)n1	-5.316% and -1.494%	-36.8%
CCc1nn(C)c2[nH]nc(NC(=O)c3cccnc3NC(C)C)c12	34.02%	7.868%
Cn1ccnc(Sc2ccccc2)c1=O	15.7%	6.347%
CN(Cc1ccccc1)CC(O)Cn1cnc2ccsc2c1=O (centres unmarked)	12.84%	-7.156%
CC(=O)N1CCOC(c2cc(N3CC(O)C3)nc(C)n2)C1 (centres unmarked)	27.97%	-27.02%
O=C(NC1CC1)c1cc(C2CCCN(Cc3ccccn3)C2)no1 (centres unmarked)	1.425%	2.854%
COc1cc(N2CC[C@@H](O)[C@@H]2Cc2cccnc2)ncn1.O=C(O)C(F)(F)F	6.254%	8.534%
COc1ccc(CN2CCCCC2Cn2nc(C)nc2C)cc1F (centres unmarked)	9.198%	-12.41%
CC(=O)NCC1CCN(C(=O)NCCc2ccc(Cl)s2)CC1	-17.76%	-19.77%
O=C(O)C(F)(F)F.O=C1COC2(CCN(S(=O)(=O)C3CC3)CC2)CN1c1cccnc1	-7.404%	-12.72%
Cn1ccnc1SCCNc1ccnc(C(F)(F)F)n1	3.974%	1.426%
Cc1ccc2cc(C(=O)N3CCN(C(=O)c4ccoc4)CC3)[nH]c2c1	-10.97%	7.178%
O=C(Cc1noc2ccccc12)N1CCCC1c1noc(C2CC2)n1 (centres unmarked)	29.42%	20.08%
Cc1cc(-c2nn3c(C4CCC4)nnc3s2)on1	21.04%	15.63%
Cc1cc(C)nc(Nc2cc(C)nc(C3CCN(C(C)C)C3)n2)n1 (centres unmarked)	-44.03%	6.075% and -12.61%
CSc1nc2cc(C)n(CC(=O)NC(C)C)c2c(=O)n1CC(C)C	-2.486%	-4.171%
Cc1cc(NCCO)nc(N2CCCC2)c1C#N	20.54%	35.69%
CSc1ncnc(NCc2cccs2)c1C#N	15.88% and 3.567%	-17.02%
CCC(C)Oc1cc(C(=O)Nc2nccs2)ccn1 (centres unmarked)	43.87%	34.8%
CC(C(N)=O)N(C)Cc1ccccc1C(F)(F)F (centres unmarked)	-40.02%	-22.02%
COc1ccc(CCNC(=O)C2CCC(Cn3cnnn3)CC2)cc1 (centres unmarked)	-10.27%	2.237%
COc1ccc(C2=NOC(CC#N)C2)cc1 (centres unmarked)	9.932%	10.29%
CCc1ccccc1N1CC(c2nnc(N)s2)CC1=O (centres unmarked)	5.745%	2.892%
CCCc1cncnc1N1CCC2(CCC(=O)N(CCCO)C2)CC1	-32.22%	-31.27%
c1csc(CN2CCc3nc(N4CCOCC4)nc(NC4CC4)c3C2)n1	-10.98% and -87.95%	-31.91% and -27.72%
[H][C@@]12CCCO[C@]1([H])[C@H](NC(=O)CC1CC1)CN(Cc1ccc(OC)cc1)C2	11.58% and -21.31%	-7.998%
O=C1CN(C(=O)c2cc(-c3ccco3)nc3c(Cl)cccc23)CCN1	-17.07%	-1.552%
CN(C)c1nc2c(c(N(C)C)n1)CCN(C(=O)CN1CCC(O)CC1)C2	-32.31%	-11.77%
Cc1cc(N(C)Cc2ccsc2)n2nc(C)c(C)c2n1	77.45% and 78.77%	73.41%
OC1(CN2CCCC2)COCCN(c2noc(-c3ccccc3)n2)C1 (centres unmarked)	32.22% and 18.44%	20.75%
Cc1cccnc1CN1CCN(C(=O)CCn2ccc(=O)[nH]c2=O)CC1	8.164%	6.088%
CN(CCN1CCCC1=O)S(=O)(=O)CC1CCCC1	4.493% and -3.426%	-6.766% and -7.65%
CC(=O)N1CCOCC(Cc2ccc3c(ccn3C(C)=O)c2)C1 (centres unmarked)	17.3%	2.219% and -3.818%
O=C1OC2(CCN(CC3CCCO3)CC2)CN1CCc1ccccc1 (centres unmarked)	3.714% and -3.744%	-0.1169%
CN(Cc1ccccc1Cl)C(=O)c1cc(CN2CCC(O)CC2)on1	16.99%	-6.154%
COc1cccc(-c2nccnc2C2CCN(C(C)=O)CC2)c1	-7.778%	-19.36%
[H][C@@]12CN(Cc3ccc(C#N)cc3)C[C@]1([H])OCC(=O)N2	-2.289% and -30.46%	-12.88%
CN(Cc1ccncn1)C(=O)C1(Oc2ccc(Cl)cc2)CCNCC1	13.57%	-5.84%
CC(C(=O)NC1CC1)S(=O)(=O)Cc1csc(-c2cccs2)n1 (centres unmarked)	-27.23% and -2.156%	-20.02%
[H][C@]12CCN(C(=O)COC)[C@@]1([H])CC[C@@H](COCc1csc(C)n1)O2	23.96%	-23.04%
Cl.O=C(NCc1ccc(F)cc1)N1CCN(CC(O)C2CC2)CC1 (centres unmarked)	13.6%	4.567%
CC(=O)c1cccc(OCc2cc(C(=O)N3CCCCO3)n[nH]2)c1	31.13%	38.34%
CCn1cc2c(n1)C(COCC1CC1)CN(C(=O)c1ccco1)C2 (centres unmarked)	15.69% and 2.538%	21.98%
O=C(O)C(F)(F)F.[H][C@@]12CN(Cc3sccc3C)C[C@@H](C(=O)NCCOC)[C@]1([H])CCO2	3.442%	10.23%
COCCC(=O)N1CCC2(CC1)CC(c1ccccc1)CN(C)C2 (centres unmarked)	-14.13%	-29.31%
COc1cc(F)cc(CNC(=O)Nc2ccn(CC(F)F)n2)c1	34.78%	15.68%
c1ccn2c(C3CCCN(c4ncnc5c4CCNC5)C3)nnc2c1 (centres unmarked)	-40.84%	-34.87%
c1cc2c(cc1C[C@@H]1CC[C@H](CN3CCCOCC3)O1)OCO2	16.3%	13.57%
COc1ccc(Cl)cc1NCC(=O)N(Cc1ccncc1)C1CC1	-23.31%	-10.79%
CN(C)CC(=O)N1CCN(C(=O)c2cccc3[nH]ncc23)CC1	11.94%	-3.672%
Cc1ccc(N2C[C@@H](CN3CCOCC3)[C@@H](CO)C2)nn1	-1.499% and -26.53%	0.8226%
Cc1cc(OC(F)F)c(C(=O)N2CCN(C3CC3)CC2)s1	0.7728% and -8.999%	7.535%
CN(C)C(=O)CN1CCCC1c1nccnc1Nc1ccccn1 (centres unmarked)	-3.886%	-3.974%
N#Cc1cc(F)ccc1CN1CCCCC1Cn1cccn1 (centres unmarked)	13.24% and -20.33%	10.24%
Cc1cnc(-c2nc(O)c3c(n2)CN(C(=O)CC2CCCC2)CC3)cn1	8.245%	-4.11%
CS(=O)(=O)N1CCCCCC1C1CCN(c2ncccc2C#N)CC1 (centres unmarked)	-12.66%	-7.948%
Cc1nc(NC(=O)c2c3c(nn2C2CCS(=O)(=O)C2)CCC3)sc1C (centres unmarked)	8.047%	2.081%
Cc1cccc(CNC(=O)C2CCC(=O)N(Cc3ccccc3F)C2)n1 (centres unmarked)	7.366% and -28.28%	5.438%
O=C(c1cc(=O)n(-c2ccccc2)[nH]1)N1CCOC(C(F)(F)F)C1 (centres unmarked)	3.977%	1.024%

The first 5 entries again:

With O=C(O)C(F)(F)F.[H][C@]12CCN(S(C)(=O)=O)CC[C@@]1([H])S(=O)(=O)CCN2Cc1cccc(C)n1 the screen gave Mtb glucose medium: -13.57% and -39.56%; Mtb cholesterol medium: -25.28%.
With Cc1nc(CCNC(=O)C2CC(=O)N(C(C)C)C2)cs1 (centres unmarked) the screen gave Mtb glucose medium: -8.955%; Mtb cholesterol medium: 7.585%.
With Cc1cc(C)n(CCCNC(=O)NCc2c(C)cc(C)[nH]c2=O)n1 the screen gave Mtb glucose medium: 6.575%; Mtb cholesterol medium: -3.103%.
With O=C(c1cncnc1)N1CCCC(c2nccs2)C1 (centres unmarked) the screen gave Mtb glucose medium: 7.576%; Mtb cholesterol medium: -1.309% and 3.058%.
With c1cnc(-c2nc(CN3CCCC(N4CCCC4)C3)cs2)nc1 (centres unmarked) the screen gave Mtb glucose medium: -10.71%; Mtb cholesterol medium: -12.14%.

Source: ChEMBL document CHEMBL3988442, “University of Dundee, Small-Polar-MMV Screening Library” (2021).